# Data as given in PubChem BioAssay AID1224828 (NIAID, 2016)
# Screen: 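Find genes required for NF-kappaB p65 moving into the nucleus after LPS in mouse macrophages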 (primary screen)
# System: mouse RAW264.7 G9 macrophage reporter cells (GFP-p65, Tnf promoter-mCherry)
# Reagent: siRNA pool against mouse genes, 100 nM
# Time to read-out: 2 days siRNA transfection, then 40 min LPS before fixation
# Treatment: LPS (Salmonella minnesota R595) at 10 ng/ml
# Detection: 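Imaged p65 nuclear translocation ratio, normalised to the plate median, converted to robust z-scores and averaged across two replicates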
# Scale: p65 translocation robust z-score: higher = more nuclear NF-kappaB p65 after LPS than the plate median; nuclear/cytoplasmic p65 ratio: higher = more nuclear NF-kappaB p65
# Active means: 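Active if robust z is above 3.3 (negative regulators) or below -1.56, the Tlr4 control median (positive regulators); activity score 50 or more; control wells not called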
# Meaning of the calls: active = hit (p65 shift raised or lowered); inactive = no clear change
# The deposit covers about 17,000 reagents; below is a part drawn at random. Over the whole deposit, 762 (4.5%) got an active call. 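Active calls include both raised and lowered p65 entry, mostly lowered; wells with fewer than 50 cells lack a z-score.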 Raw values vary from plate to plate and are shown uncorrected. Unmarked entries are inactive.
gene knocked down,p65 translocation robust z-score,"nuclear/cytoplasmic p65 ratio, rep 1","nuclear/cytoplasmic p65 ratio, rep 2",low cell count flag
Adap2 (ArfGAP with dual PH domains 2),1.05,1.7,2.01,enough cells to score
Ifnar1 (interferon (alpha and beta) receptor 1),1.28,1.58,1.56,enough cells to score
Abhd12 (abhydrolase domain containing 12),0.38,1.31,1.62,enough cells to score
Rpp14 (ribonuclease P 14 subunit),-1.47,1.32,1.31,enough cells to score
Ppig (peptidyl-prolyl isomerase G (cyclophilin G)),0.92,1.83,1.68,enough cells to score
Polr1g (RNA polymerase I subunit G),-0.02,1.4,1.59,enough cells to score
Mrps23 (mitochondrial ribosomal protein S23),-2.1 (active),1.44,1.28,enough cells to score
"Abcb1a (ATP-binding cassette, sub-family B member 1A)",-1.83 (active),1.34,1.34,enough cells to score
Sypl1 (synaptophysin like 1),,1.44,1.18,fewer than 50 cells per well; well left out of scoring
Sectm1b (secreted and transmembrane 1B),0.75,1.55,1.3,enough cells to score
Or5al7 (olfactory receptor family 5 subfamily AL member 7),1.01,1.78,1.75,enough cells to score
Gmip (Gem-interacting protein),-0.76,1.59,1.45,enough cells to score
"Pitpnc1 (phosphatidylinositol transfer protein, cytoplasmic 1)",0.67,1.59,1.59,enough cells to score
"Nphs1 (nephrosis 1, nephrin)",,1.45,1.28,fewer than 50 cells per well; well left out of scoring
Creld2 (cysteine-rich with EGF-like domains 2),-0.49,1.36,1.33,enough cells to score
Rpp25l (ribonuclease P/MRP 25 subunit-like),,1.3,2.28,fewer than 50 cells per well; well left out of scoring
Fhip2a (FHF complex subunit HOOK interacting protein 2A),1.28,1.85,1.83,enough cells to score
Utf1 (undifferentiated embryonic cell transcription factor 1),0.98,1.66,1.63,enough cells to score
Stom (stomatin),-1.79 (active),1.3,1.24,enough cells to score
Yod1 (YOD1 deubiquitinase),1.58,1.58,1.82,enough cells to score
Cald1 (caldesmon 1),-0.05,1.6,1.76,enough cells to score
Pcdha4 (protocadherin alpha 4),0.17,1.46,1.26,enough cells to score
A430010J10Rik (RIKEN cDNA A430010J10 gene),-1.41,1.28,1.33,enough cells to score
Arl5c (ADP-ribosylation factor-like 5C),,1.36,1.32,fewer than 50 cells per well; well left out of scoring
"Mta2 (metastasis-associated gene family, member 2)",-0.44,1.32,1.35,enough cells to score
Or9g10 (olfactory receptor family 9 subfamily G member 10),0.95,1.64,1.65,enough cells to score
Rd3 (retinal degeneration 3),,1.03,0.995,fewer than 50 cells per well; well left out of scoring
Vash2 (vasohibin 2),-0.7,1.44,1.47,enough cells to score
"Pold2 (polymerase (DNA directed), delta 2, regulatory subunit)",-0.41,1.32,1.18,enough cells to score
Slc2a1,-0.02,1.5,1.53,enough cells to score
Usp15 (ubiquitin specific peptidase 15),-0.16,1.58,1.4,enough cells to score
Or13a27 (olfactory receptor family 13 subfamily A member 27),,1.41,1.19,fewer than 50 cells per well; well left out of scoring
Gabrb1 (gamma-aminobutyric acid type A receptor subunit beta 1),-1.29,1.23,1.24,enough cells to score
"Il4ra (interleukin 4 receptor, alpha)",1.7,1.72,1.59,enough cells to score
"Sntg1 (syntrophin, gamma 1)",0.5,1.54,1.29,enough cells to score
Trpm3,0.92,1.58,1.27,enough cells to score
Speer4f1 (spermatogenesis associated glutamate (E)-rich protein 4F1),0.17,1.44,1.26,enough cells to score
"Nprl2 (NPR2 like, GATOR1 complex subunit)",0.64,1.61,1.58,enough cells to score
Ttpal (tocopherol (alpha) transfer protein-like),1.06,1.46,1.64,enough cells to score
Hpca (hippocalcin),-0.6,1.67,1.47,enough cells to score
Inka2 (inka box actin regulator 2),1.35,1.59,1.75,enough cells to score
Vmn1r27 (vomeronasal 1 receptor 27),-0.31,1.4,1.15,enough cells to score
Anxa1 (annexin A1),-0.04,1.66,1.57,enough cells to score
Evi5l (ecotropic viral integration site 5 like),-0.83,1.55,1.28,enough cells to score
Kcnh1,0.87,1.64,1.45,enough cells to score
"Tmprss4 (transmembrane protease, serine 4)",,0,1.09,fewer than 50 cells per well; well left out of scoring
Siglecf (sialic acid binding Ig-like lectin F),-0.25,1.36,1.24,enough cells to score
"Eif2b4 (eukaryotic translation initiation factor 2B, subunit 4 delta)",0.1,1.54,1.32,enough cells to score
Rsph1 (radial spoke head 1 homolog (Chlamydomonas)),-0.15,1.41,1.21,enough cells to score
Peg3 (paternally expressed 3),,1.34,1.26,fewer than 50 cells per well; well left out of scoring
Depdc1a (DEP domain containing 1a),-0.64,1.47,1.22,enough cells to score
Ptprr (protein tyrosine phosphatase receptor type R),0.49,1.81,1.44,enough cells to score
Sim1 (single-minded family bHLH transcription factor 1),0.16,1.56,1.59,enough cells to score
"Cryaa (crystallin, alpha A)",,1.33,1.12,fewer than 50 cells per well; well left out of scoring
"Pkmyt1 (protein kinase, membrane associated tyrosine/threonine 1)",-0.47,1.62,1.32,enough cells to score
Prss45 (serine protease 45),-0.38,1.67,1.48,enough cells to score
Alk (anaplastic lymphoma kinase),,1.69,1.08,fewer than 50 cells per well; well left out of scoring
Acsm2 (acyl-CoA synthetase medium-chain family member 2),-0.13,1.55,1.83,enough cells to score
Ints15 (integrator complex subunit 15),0.9,1.65,1.42,enough cells to score

Taken from above:
For “nuclear/cytoplasmic p65 ratio, rep 1”, Or13a27 (olfactory receptor family 13 subfamily A member 27) has 1.41
Result of Pitpnc1 (phosphatidylinositol transfer protein, cytoplasmic 1) under “nuclear/cytoplasmic p65 ratio, rep 1”: 1.59
Hpca (hippocalcin), p65 translocation robust z-score → -0.6
